The other results are listed elsewhere or left out. Further columns of the screen follow, without active or inactive calls. Compounds called inactive in the main read-out are mostly missing here. The note in brackets gives the kind of curve behind each potency; many fits are weak.
Assay: qHTS Assay for Lipid Storage Modulators in Drosophila S3 Cells;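 as to cell number change: cells counted by Cell Tracker Red CMTPX staining in the red channel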
Conditions: BODIPY lipid droplet fluorescence, 18-24 h; for cell number change: measured here: cell count max response, cells fed with added oleic acid
Method in brief: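 Drosophila S3 cells loaded with oleic acid (400 uM, as added) and compounds at several concentrations; lipid droplets imaged by 488-nm laser-scanning cytometry, 500–530 nm intensity and object ratio to cell channel. Percent activity normalized to 20 uM Triacsin C.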

[1] = measured here: lipid fluorescence (Fed channel) AC50, cells fed with added oleic acid
[2] = measured here: cell number channel AC50, cells fed with added oleic acid

Structure (SMILES) | cell number change | AC50 [1] | AC50 [2]
Cc1ccc(N2CC(C(=O)NCc3n[nH]c(=O)c4ccccc34)CC2=O)cc1 (stereo not given) | -0.578% | – | –
CN(CCC1CCOCC1)C(=O)c1cc(COc2c(F)cccc2F)on1 | -4.01% | 25.9 µM [rising, partial curve] | –
O=C(Nc1cccc(-n2cnnn2)c1)c1cc(Cl)ccc1Cl | – | 2.59 µM [rising, full curve] | –
O=C(Nc1ccccc1C(=O)NCc1ccccc1)C1=CSCCO1 | 5.6% | 6.51 µM [rising, partial curve, poor fit] | –
Cc1cccc(C(=O)c2ccccc2C(=O)O)c1 | -33.7% | 20.6 µM [falling, single point] | 29.1 µM [falling, single point]
CS(=O)(=O)N(CC(=O)NCCSCc1ccccc1)c1ccccc1F | – | 0.58 µM [rising, single point] | –
O=c1ccc2ccc(Oc3ccc([N+](=O)[O-])cc3[N+](=O)[O-])cc2o1 | -20.5% | 18.4 µM [falling, partial curve] | –
O=C(N/N=C\c1cccnc1)c1ccc(Cl)cc1Cl | 17.8% | 0.58 µM [rising, full curve, poor fit] | –
COc1cccc(NC(=O)CN(C)CC(=O)Nc2ccc(Cl)cc2[N+](=O)[O-])c1 | 15.6% | 3.26 µM [rising, single point] | 2.31 µM [rising, single point]
O=[N+]([O-])c1nn(-c2ccc3c(c2)OCCO3)n(O)c1=NCCCO | -23.2% | 14.6 µM [falling, single point] | –
CCOC(=O)C1=C(C)N=C2SC(C(=O)OC)=CC(=O)N2C1c1ccc(OC)cc1 (stereo not given) | -29% | 23.1 µM [falling, single point] | –
COc1ccc(N(CC(=O)NN=C2CCCCCCC2)S(=O)(=O)c2ccccc2)cc1 | – | 6.51 µM [rising, single point] | –
COc1cccc(OCCc2c(C)n[nH]c2C)c1 | -23.9% | 1.16 µM [rising, partial curve, poor fit] | –
COc1ccc(NC(=O)C2CC(=O)N(Cc3ccco3)C2)cc1Cl (stereo not given) | -5.19% | 16.4 µM [rising, partial curve] | –
C/C(=C\c1ccccc1)CN1CCC(C(=O)N2CCCC(C)C2)CC1 (stereo not given) | 14% | 1.84 µM [falling, partial curve] | –
Cc1cc(C)nc(N(C#N)CN2C(=O)c3ccccc3S2(=O)=O)n1 | -27.1% | 29.1 µM [falling, single point] | –
Cc1cccc2sc(NC(=O)c3ccc(NS(=O)(=O)c4cccs4)cc3)nc12 | 11.9% | 2.59 µM [rising, full curve] | –
Cc1ccc(/C=C/C(=O)NC2=NCCS2)cc1 | 168% | 29.1 µM [rising, single point] | 29.1 µM [rising, single point]
CCc1nc(SCC(=O)Nc2nccs2)c2oc3ccccc3c2n1 | – | 1.64 µM [rising, partial curve] | 0.82 µM [rising, full curve]

Structures above containing a nitro group on carbon:
Structure (SMILES) | cell number change | AC50 [1] | AC50 [2]
O=c1ccc2ccc(Oc3ccc([N+](=O)[O-])cc3[N+](=O)[O-])cc2o1 | -20.5% | 18.4 µM [falling, partial curve] | –
COc1cccc(NC(=O)CN(C)CC(=O)Nc2ccc(Cl)cc2[N+](=O)[O-])c1 | 15.6% | 3.26 µM [rising, single point] | 2.31 µM [rising, single point]
O=[N+]([O-])c1nn(-c2ccc3c(c2)OCCO3)n(O)c1=NCCCO | -23.2% | 14.6 µM [falling, single point] | –

Later entries:

Structure (SMILES) | cell number change | AC50 [1] | AC50 [2]
CCn1c(SCC(=O)NC(=O)NCc2ccco2)nc2sc(C)c(C)c2c1=O | -3.33% | – | –
CC(c1ccccc1)n1c(NCCCn2ccnc2)nc2c1c(=O)[nH]c(=O)n2C (stereo not given) | -4.97% | 9.2 µM [rising, partial curve] | –
Cc1ccc(NC(=O)CSc2nnc(C3CC3)n2CC2CCCO2)c(C)c1 (stereo not given) | -10.8% | 0.58 µM [falling, single point] | –
CCOC(=O)c1sc2ncn(/N=C/N(C)C)c(=O)c2c1C | 161% | – | 23.1 µM [rising, single point]
CCOc1cccc(-c2c(C(=O)N/N=C/c3ccncc3)nnn2-c2nonc2N)c1 | 25.1% | 0.58 µM [rising, single point] | –
O=C(COc1ccc([N+](=O)[O-])cc1Cl)NCCc1ccccc1 | 63.1% | 2.31 µM [rising, partial curve, poor fit] | 29.1 µM [rising, single point]
OC(CCN1CCOCC1)(c1ccc(Cl)cc1)C1CCCCC1 (stereo not given) | -43.8% | – | 32.6 µM [falling, single point]
Cc1nnsc1C(=O)Nc1ccc(S(=O)(=O)N2CCC(C)CC2)cc1 | 7.65% | 29.1 µM [falling, single point] | –
CN(CCCC1CCCC1)C(=O)c1cc(COc2ccc(F)c(F)c2)on1 | -27.9% | – | –
O=C(COc1ccc2ccccc2c1Br)NCc1ccccn1 | -43.6% | – | –
CC(=O)C1=C(O)CC(c2ccccc2)CC1=NCCc1c(C)[nH]c2ccccc12 (stereo not given) | -0.936% | 0.326 µM [rising, full curve] | –
Cc1cccc(NC(=O)C2CCCN(S(=O)(=O)c3cccc4cccnc34)C2)c1 (stereo not given) | 34.9% | – | 23.1 µM [rising, single point]
CS(=O)(=O)Oc1ccc2c(c1)O/C(=C\C=C\c1ccccc1)C2=O | -40.8% | 6.51 µM [falling, partial curve] | 29.1 µM [falling, single point]
CCN(CC)S(=O)(=O)c1ccc(Br)c(OC)c1 | -85.2% | 16.4 µM [falling, partial curve] | 32.6 µM [falling, partial curve, poor fit]
CCn1cc(C(=O)NCC2CCCO2)c2cc(OC)c(OC)cc2c1=O (stereo not given) | 2.8% | 0.00461 µM [falling, full curve, poor fit] | –
Cc1ccc(C)c(NC(=O)CCN2C(=O)[C@@H]3Cc4ccccc4CN3C2=O)c1 | 26.7% | 29.1 µM [rising, single point] | –
Cc1ccc(CCC(=O)Nc2ccc(S(N)(=O)=O)cc2)o1 | -15.7% | 5.17 µM [falling, full curve] | –
CCN1CCN(C(=O)c2cccc(OC3CCN(S(C)(=O)=O)CC3)c2)[C@@H](C)C1=O | 15.6% | 18.4 µM [rising, single point] | –
N#Cc1c(-c2cccs2)nc(SCc2ccc(Cl)cc2)[nH]c1=O | -13.3% | 3.26 µM [falling, single point] | –

Source: PubChem BioAssay AID2685 (National Center for Advancing Translational Sciences (NCATS), 2010)
